# According to PMC8384837:
# Where a chain is given by its changes, count along the chain named. The list shows a part of the results. For some of these results: At the low end of the ranking, values are background and their order means little.
# Columns and labels:
# Conditions in all cases: yeast three-hybrid, YBZ-1, SC-Leu-His + 0.5 mM 3-AT, 4 days
# [1] = target: T1, PUM1 PUF domain R7-RQL S1079R + N1080Q + E1083L (Homo sapiens) (UniProt Q14671)
# T1 sequence: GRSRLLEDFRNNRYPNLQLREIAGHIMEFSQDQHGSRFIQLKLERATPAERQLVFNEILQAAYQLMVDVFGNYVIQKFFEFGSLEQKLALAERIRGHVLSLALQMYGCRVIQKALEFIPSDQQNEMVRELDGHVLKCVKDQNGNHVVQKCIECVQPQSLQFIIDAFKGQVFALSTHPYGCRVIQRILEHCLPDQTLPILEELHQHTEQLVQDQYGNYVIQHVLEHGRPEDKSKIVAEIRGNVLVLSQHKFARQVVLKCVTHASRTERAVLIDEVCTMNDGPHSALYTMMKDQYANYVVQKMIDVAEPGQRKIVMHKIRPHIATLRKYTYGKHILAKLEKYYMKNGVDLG
# [2] = target: T2, PUM1 PUF domain R7-RSW S1079R + N1080S + E1083W (Homo sapiens) (UniProt Q14671)
# T2 sequence: T1 sequence with Q253S, L256W
# [3] = target: T3, PUM1 PUF domain R7-RTC S1079R + N1080T + E1083C (Homo sapiens) (UniProt Q14671)
# T3 sequence: T1 sequence with Q253T, L256C
# [4] = target: T4, PUM1 PUF domain R7-RTL S1079R + N1080T + E1083L (Homo sapiens) (UniProt Q14671)
# T4 sequence: T1 sequence with Q253T
# [5] = target: T5, PUM1 PUF domain R7-RVC S1079R + N1080V + E1083C (Homo sapiens) (UniProt Q14671)
# T5 sequence: T1 sequence with Q253V, L256C
# [6] = target: T6, PUM1 PUF domain R7-RVI S1079R + N1080V + E1083I (Homo sapiens) (UniProt Q14671)
# T6 sequence: T1 sequence with Q253V, L256I
# [7] = target: T7, PUM1 PUF domain R7-RVL S1079R + N1080V + E1083L (Homo sapiens) (UniProt Q14671)
# T7 sequence: T1 sequence with Q253V
# [8] = target: T8, PUM1 PUF domain R7-RVM S1079R + N1080V + E1083M (Homo sapiens) (UniProt Q14671)
# T8 sequence: T1 sequence with Q253V, L256M
# [9] = target: T9, PUM1 PUF domain R7-RVS S1079R + N1080V + E1083S (Homo sapiens) (UniProt Q14671)
# T9 sequence: T1 sequence with Q253V, L256S
# [10] = target: T10, PUM1 PUF domain R7-RVT S1079R + N1080V + E1083T (Homo sapiens) (UniProt Q14671)
# T10 sequence: T1 sequence with Q253V, L256T
# [11] = target: T11, PUM1 PUF domain R7-RVV S1079R + N1080V + E1083V (Homo sapiens) (UniProt Q14671)
# T11 sequence: T1 sequence with Q253V, L256V
# [12] = target: T12, PUM1 PUF domain R7-SRP N1080R + E1083P (Homo sapiens) (UniProt Q14671)
# T12 sequence: T1 sequence with R252S, Q253R, L256P
# [13] = target: T13, PUM1 PUF domain R7-TIV S1079T + N1080I + E1083V (UniProt Q14671)
# T13 sequence: T1 sequence with R252T, Q253I, L256V
# [14] = target: T14, PUM1 PUF domain R7-TMG S1079T + N1080M + E1083G (Homo sapiens) (UniProt Q14671)
# T14 sequence: T1 sequence with R252T, Q253M, L256G
# [15] = target: T15, PUM1 PUF domain R7-TPG S1079T + N1080P + E1083G (Homo sapiens) (UniProt Q14671)
# T15 sequence: T1 sequence with R252T, Q253P, L256G
# [16] = target: T16, PUM1 PUF domain R7-TSV S1079T + N1080S + E1083V (UniProt Q14671)
# T16 sequence: T1 sequence with R252T, Q253S, L256V
# [17] = target: T17, PUM1 PUF domain R7-TTG S1079T + N1080T + E1083G (UniProt Q14671)
# T17 sequence: T1 sequence with R252T, Q253T, L256G
# [18] = target: T18, PUM1 PUF domain R7-TVA S1079T + N1080V + E1083A (UniProt Q14671)
# T18 sequence: T1 sequence with R252T, Q253V, L256A
# [19] = target: T19, PUM1 PUF domain R7-TVG S1079T + N1080V + E1083G (UniProt Q14671)
# T19 sequence: T1 sequence with R252T, Q253V, L256G
# [20] = target: T20, PUM1 PUF domain R7-TVR S1079T + N1080V + E1083R (Homo sapiens) (UniProt Q14671)
# T20 sequence: T1 sequence with R252T, Q253V, L256R
# [21] = target: T21, PUM1 PUF domain R7-VER S1079V + N1080E + E1083R (UniProt Q14671)
# T21 sequence: T1 sequence with R252V, Q253E, L256R
# [22] = target: T22, PUM1 PUF domain R7-VRR S1079V + N1080R + E1083R (Homo sapiens) (UniProt Q14671)
# T22 sequence: T1 sequence with R252V, Q253R, L256R
# [23] = target: T23, PUM1 PUF domain R7-VSR S1079V + N1080S + E1083R (Homo sapiens) (UniProt Q14671)
# T23 sequence: T1 sequence with R252V, Q253S, L256R
# [24] = target: T24, PUM1 PUF domain R7-VTR S1079V + N1080T + E1083R (UniProt Q14671)
# T24 sequence: T1 sequence with R252V, Q253T, L256R
# [25] = target: T25, PUM1 PUF domain R7-VVK S1079V + N1080V + E1083K (UniProt Q14671)
# T25 sequence: T1 sequence with R252V, Q253V, L256K
sequence,measurement,setting,value
GGCUAGAACUAGUGGAUCCCCCGGCGCCCGGCGGCUCGAGCCCGGGUAAGUCUAAAUAGUCUGCAUGCCGCCGGGCGCCAUGCCUGCAGGUCGACUCUAGAAAACAUG,binding signal (log2 enrichment (interaction score)),[1],-1.71
same,binding signal (log2 enrichment (interaction score)),[2],-1.24
same,binding signal (log2 enrichment (interaction score)),[3],-0.59
same,binding signal (log2 enrichment (interaction score)),[4],-0.25
same,binding signal (log2 enrichment (interaction score)),[5],0.03
same,binding signal (log2 enrichment (interaction score)),[6],-0.43
same,binding signal (log2 enrichment (interaction score)),[7],-0.18
same,binding signal (log2 enrichment (interaction score)),[8],-0.48
same,binding signal (log2 enrichment (interaction score)),[9],-0.28
same,binding signal (log2 enrichment (interaction score)),[10],0.15
same,binding signal (log2 enrichment (interaction score)),[11],-0.71
same,binding signal (log2 enrichment (interaction score)),[12],-2.68
same,binding signal (log2 enrichment (interaction score)),[13],< -7.98
same,binding signal (log2 enrichment (interaction score)),[14],< -6.68
same,binding signal (log2 enrichment (interaction score)),[15],-5.45
same,binding signal (log2 enrichment (interaction score)),[16],< -8.59
same,binding signal (log2 enrichment (interaction score)),[17],< -8.74
same,binding signal (log2 enrichment (interaction score)),[18],< -7.66
same,binding signal (log2 enrichment (interaction score)),[19],< -7.26
same,binding signal (log2 enrichment (interaction score)),[20],-4.9
same,binding signal (log2 enrichment (interaction score)),[21],< -8.21
same,binding signal (log2 enrichment (interaction score)),[22],-0.04
same,binding signal (log2 enrichment (interaction score)),[23],-5.62
same,binding signal (log2 enrichment (interaction score)),[24],-6.53
same,binding signal (log2 enrichment (interaction score)),[25],< -9.55

# Part of the list above in a different format.
sequence | measurement | setting | value
GGCUAGAACUAGUGGAUCCCCCGGCGCCCGGCGGCUCGAGCCCGGGUAAGUCUAAAUAGUCUGCAUGCCGCCGGGCGCCAUGCCUGCAGGUCGACUCUAGAAAACAUG | binding signal (log2 enrichment (interaction score)) | [18] | < -7.66
same | binding signal (log2 enrichment (interaction score)) | [19] | < -7.26
